Measured values: the supplement of paper PMC6411743
± gives the standard deviation of the averaged measurements. This is one part of the list.

Chains of the proteins cited; added tags and fusions are not shown. Lines headed by an entry give the natural chain unless they say otherwise; changes in a name come on top.
UniProt Q9H082: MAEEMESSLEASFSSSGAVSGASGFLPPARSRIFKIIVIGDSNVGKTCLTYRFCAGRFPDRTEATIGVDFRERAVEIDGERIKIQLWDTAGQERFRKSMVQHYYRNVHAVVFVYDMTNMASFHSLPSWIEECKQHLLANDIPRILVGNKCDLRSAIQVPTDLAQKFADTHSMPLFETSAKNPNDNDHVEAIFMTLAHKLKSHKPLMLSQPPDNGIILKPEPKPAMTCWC
UniProt Q9H3K2: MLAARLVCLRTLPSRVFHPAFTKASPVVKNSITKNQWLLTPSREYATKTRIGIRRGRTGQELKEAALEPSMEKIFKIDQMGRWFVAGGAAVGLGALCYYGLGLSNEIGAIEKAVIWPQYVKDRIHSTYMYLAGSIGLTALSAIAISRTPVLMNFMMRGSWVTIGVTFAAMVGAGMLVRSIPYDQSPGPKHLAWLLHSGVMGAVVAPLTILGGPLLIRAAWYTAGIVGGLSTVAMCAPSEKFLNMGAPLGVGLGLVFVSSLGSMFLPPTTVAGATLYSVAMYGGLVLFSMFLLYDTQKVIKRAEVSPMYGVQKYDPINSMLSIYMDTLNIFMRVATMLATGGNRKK
UniProt Q9H2C0: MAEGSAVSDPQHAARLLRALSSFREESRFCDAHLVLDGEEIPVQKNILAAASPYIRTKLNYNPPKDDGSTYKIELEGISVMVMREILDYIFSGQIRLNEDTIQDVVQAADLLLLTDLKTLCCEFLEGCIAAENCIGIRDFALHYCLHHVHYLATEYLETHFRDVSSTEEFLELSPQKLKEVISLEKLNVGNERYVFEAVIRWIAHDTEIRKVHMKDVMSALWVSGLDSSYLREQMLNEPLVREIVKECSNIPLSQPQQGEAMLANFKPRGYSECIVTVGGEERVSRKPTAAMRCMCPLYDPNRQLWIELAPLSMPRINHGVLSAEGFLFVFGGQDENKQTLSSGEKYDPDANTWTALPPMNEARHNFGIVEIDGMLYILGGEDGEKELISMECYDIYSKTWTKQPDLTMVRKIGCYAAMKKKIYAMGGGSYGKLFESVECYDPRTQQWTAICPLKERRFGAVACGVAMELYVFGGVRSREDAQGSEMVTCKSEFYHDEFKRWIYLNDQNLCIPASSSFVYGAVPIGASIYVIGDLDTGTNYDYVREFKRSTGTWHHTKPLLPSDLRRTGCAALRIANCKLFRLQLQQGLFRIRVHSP
UniProt Q9H981, whole entry: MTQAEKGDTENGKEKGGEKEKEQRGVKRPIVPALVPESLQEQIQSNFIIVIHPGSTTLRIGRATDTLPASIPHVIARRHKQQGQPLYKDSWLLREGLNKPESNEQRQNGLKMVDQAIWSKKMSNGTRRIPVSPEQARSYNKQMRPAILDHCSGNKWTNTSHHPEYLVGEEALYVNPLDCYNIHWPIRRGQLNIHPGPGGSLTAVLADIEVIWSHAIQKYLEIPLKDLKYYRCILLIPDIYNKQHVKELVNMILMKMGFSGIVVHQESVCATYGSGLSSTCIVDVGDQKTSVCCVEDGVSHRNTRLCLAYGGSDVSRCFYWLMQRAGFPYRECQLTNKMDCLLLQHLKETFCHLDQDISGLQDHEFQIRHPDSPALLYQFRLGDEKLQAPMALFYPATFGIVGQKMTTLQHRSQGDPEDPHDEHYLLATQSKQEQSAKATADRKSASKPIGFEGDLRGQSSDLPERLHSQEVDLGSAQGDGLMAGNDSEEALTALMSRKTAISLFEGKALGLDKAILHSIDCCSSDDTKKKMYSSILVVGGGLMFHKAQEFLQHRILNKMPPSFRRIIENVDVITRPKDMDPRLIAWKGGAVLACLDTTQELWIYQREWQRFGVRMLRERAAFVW
UniProt Q9H6N6: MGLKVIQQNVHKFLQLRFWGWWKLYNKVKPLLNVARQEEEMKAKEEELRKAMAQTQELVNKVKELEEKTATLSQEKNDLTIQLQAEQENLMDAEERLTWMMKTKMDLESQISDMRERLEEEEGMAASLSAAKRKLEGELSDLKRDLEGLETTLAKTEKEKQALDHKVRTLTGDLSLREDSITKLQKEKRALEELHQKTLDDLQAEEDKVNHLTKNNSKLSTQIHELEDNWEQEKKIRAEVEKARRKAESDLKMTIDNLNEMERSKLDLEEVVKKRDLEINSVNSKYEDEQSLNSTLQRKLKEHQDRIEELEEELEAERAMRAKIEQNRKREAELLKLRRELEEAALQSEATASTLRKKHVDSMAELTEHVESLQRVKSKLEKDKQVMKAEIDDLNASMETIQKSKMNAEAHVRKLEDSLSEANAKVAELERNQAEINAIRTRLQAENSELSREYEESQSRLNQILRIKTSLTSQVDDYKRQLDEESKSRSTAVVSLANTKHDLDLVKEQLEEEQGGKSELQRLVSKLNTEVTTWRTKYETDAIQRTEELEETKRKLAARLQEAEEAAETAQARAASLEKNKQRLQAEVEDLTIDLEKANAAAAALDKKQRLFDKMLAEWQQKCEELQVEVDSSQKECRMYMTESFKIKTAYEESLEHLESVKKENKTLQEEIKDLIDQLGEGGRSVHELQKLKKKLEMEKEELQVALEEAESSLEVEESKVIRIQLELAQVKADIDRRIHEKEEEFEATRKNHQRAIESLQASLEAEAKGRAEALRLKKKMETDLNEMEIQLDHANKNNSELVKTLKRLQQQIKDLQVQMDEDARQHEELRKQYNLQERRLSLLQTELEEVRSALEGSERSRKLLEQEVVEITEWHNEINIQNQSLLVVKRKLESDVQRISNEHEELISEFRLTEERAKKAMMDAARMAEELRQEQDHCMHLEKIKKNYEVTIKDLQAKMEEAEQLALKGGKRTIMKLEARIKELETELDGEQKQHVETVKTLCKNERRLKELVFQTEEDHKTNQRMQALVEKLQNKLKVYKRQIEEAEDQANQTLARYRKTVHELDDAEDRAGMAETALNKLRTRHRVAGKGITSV
UniProt Q9H0J9: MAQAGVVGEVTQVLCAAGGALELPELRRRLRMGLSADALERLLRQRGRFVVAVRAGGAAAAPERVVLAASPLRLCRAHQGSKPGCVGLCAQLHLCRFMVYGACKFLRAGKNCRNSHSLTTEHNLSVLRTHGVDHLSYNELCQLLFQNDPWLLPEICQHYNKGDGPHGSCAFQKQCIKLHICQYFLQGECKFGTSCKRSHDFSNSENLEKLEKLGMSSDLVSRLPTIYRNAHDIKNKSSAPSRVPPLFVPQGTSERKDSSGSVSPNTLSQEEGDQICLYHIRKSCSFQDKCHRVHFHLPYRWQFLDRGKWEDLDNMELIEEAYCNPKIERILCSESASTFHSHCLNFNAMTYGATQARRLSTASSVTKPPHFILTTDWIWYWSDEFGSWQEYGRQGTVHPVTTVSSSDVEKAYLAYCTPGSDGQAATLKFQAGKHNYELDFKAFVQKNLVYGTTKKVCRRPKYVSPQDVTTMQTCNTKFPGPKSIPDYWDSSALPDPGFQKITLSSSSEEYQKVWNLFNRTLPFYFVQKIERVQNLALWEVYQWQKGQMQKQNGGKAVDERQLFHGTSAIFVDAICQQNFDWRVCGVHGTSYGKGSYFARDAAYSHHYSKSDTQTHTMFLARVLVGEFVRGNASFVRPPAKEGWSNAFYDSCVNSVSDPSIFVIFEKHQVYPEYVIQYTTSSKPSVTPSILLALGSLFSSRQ
UniProt Q9HA47: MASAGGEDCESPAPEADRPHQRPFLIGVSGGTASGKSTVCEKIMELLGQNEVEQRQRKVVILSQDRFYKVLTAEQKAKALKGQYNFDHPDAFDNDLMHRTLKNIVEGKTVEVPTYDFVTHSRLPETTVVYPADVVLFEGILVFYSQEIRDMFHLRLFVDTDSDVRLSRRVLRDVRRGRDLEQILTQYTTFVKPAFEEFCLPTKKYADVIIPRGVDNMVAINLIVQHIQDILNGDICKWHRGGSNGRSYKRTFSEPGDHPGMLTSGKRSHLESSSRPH
UniProt Q9H7H0: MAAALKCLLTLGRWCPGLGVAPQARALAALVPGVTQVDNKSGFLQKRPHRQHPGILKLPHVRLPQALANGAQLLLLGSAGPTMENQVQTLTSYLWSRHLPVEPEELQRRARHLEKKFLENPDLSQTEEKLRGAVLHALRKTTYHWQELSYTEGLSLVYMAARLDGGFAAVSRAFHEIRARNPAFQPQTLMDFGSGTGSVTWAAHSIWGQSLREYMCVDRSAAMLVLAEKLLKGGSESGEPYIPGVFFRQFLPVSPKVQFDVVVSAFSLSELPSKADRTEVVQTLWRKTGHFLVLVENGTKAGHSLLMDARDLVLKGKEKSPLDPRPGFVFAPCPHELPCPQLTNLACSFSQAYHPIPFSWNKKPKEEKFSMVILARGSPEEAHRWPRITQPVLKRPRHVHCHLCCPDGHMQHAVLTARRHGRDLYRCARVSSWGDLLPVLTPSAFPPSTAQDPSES
UniProt Q9H832: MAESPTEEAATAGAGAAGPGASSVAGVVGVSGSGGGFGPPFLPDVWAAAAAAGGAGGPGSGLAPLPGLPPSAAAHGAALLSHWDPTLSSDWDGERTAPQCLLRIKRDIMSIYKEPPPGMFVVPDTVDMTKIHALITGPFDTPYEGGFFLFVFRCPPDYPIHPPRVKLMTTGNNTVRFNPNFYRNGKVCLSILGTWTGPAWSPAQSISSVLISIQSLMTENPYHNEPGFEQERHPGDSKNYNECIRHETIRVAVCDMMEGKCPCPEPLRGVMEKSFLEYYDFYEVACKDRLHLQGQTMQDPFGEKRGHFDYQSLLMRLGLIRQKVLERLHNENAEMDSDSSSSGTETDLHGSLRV
UniProt Q9C0C2: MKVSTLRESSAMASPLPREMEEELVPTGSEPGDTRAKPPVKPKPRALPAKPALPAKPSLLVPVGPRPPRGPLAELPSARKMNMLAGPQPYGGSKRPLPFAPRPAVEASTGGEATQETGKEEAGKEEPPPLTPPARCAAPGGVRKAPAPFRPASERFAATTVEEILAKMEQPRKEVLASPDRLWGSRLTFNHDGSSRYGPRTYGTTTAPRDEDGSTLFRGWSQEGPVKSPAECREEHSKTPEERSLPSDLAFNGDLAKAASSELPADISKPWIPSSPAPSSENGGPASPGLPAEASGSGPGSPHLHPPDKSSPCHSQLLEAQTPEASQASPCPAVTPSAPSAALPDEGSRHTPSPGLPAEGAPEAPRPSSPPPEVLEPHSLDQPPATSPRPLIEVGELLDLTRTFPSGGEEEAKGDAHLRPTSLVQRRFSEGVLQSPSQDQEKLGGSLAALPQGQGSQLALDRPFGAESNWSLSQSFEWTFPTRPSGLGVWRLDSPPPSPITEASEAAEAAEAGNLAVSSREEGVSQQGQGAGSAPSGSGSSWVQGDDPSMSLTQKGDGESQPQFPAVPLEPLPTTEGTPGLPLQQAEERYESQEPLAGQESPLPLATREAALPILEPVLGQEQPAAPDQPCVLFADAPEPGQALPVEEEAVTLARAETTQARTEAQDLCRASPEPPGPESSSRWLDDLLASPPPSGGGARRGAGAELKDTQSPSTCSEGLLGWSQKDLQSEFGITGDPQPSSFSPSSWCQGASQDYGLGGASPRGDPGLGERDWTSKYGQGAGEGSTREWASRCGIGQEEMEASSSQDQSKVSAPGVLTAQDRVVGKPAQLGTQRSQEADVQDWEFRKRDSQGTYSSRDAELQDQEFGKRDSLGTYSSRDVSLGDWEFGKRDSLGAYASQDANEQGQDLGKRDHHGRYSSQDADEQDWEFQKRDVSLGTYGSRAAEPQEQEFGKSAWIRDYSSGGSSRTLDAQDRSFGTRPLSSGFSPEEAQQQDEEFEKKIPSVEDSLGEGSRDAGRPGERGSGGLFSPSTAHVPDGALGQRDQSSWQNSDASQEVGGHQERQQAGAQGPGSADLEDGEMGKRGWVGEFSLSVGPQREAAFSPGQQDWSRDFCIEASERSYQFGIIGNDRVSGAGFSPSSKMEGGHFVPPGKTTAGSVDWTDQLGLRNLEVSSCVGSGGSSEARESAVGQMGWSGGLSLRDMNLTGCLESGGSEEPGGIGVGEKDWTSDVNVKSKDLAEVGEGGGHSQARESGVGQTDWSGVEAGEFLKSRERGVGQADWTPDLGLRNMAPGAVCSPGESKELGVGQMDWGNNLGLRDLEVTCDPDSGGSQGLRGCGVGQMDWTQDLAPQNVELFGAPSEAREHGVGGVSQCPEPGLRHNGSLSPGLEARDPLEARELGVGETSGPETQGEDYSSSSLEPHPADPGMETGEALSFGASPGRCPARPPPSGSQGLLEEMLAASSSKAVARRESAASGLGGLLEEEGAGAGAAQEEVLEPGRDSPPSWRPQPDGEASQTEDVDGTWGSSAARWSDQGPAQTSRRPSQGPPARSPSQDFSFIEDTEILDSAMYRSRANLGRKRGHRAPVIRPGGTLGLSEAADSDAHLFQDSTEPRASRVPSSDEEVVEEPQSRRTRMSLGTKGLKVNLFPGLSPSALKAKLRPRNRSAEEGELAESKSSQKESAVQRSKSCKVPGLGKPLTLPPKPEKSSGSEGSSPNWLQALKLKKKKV

Compound: Nc1nc2c(ncn2[C@@H]2O[C@H](COP(=O)(O)OP(=O)(O)OP(=O)(O)O)[C@@H](O)[C@H]2O)c(=O)[nH]1 [guanosine triphosphate]
Experiment: NP40-soluble protein abundance relative to vehicle (solubility fold change) (ratio); higher = more soluble protein in presence of GTP
Procedure, shortened: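 Each value is a fold change relative to the detergent-processed vehicle, calculated per replicate from vsn-normalised intensities. Jurkat crude lysate received eight concentrations (0.1 to 10 mM) for 10 min at room temperature and 3 min at 37 °C, then was solubilised in 0.8% NP40 with benzonase (60 min, 4 °C). The ultracentrifuged supernatant was TMT-labelled and run by LC-MS/MS in three independent experiments.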

Target	NP40-soluble protein abundance (concentration: 0.1mM)	NP40-soluble protein abundance (concentration: 0.5mM)	NP40-soluble protein abundance (concentration: 1mM)	NP40-soluble protein abundance (concentration: 2mM)	NP40-soluble protein abundance (concentration: 4mM)	NP40-soluble protein abundance (concentration: 6mM)	NP40-soluble protein abundance (concentration: 8mM)	NP40-soluble protein abundance (concentration: 10mM)
UniProt Q9NQS7 and related entries	1.16 ± 0.11	1.2 ± 0.24	1.31 ± 0.089	1.28 ± 0.14	1.49 ± 0.21	1.6 ± 0.17	1.72 ± 0.11	1.97 ± 0.29
UniProt Q9H7D7 and related entries	1.15 ± 0.12	1.16 ± 0.14	1.17 ± 0.17	1.25 ± 0.22	1.28 ± 0.27	1.24 ± 0.27	1.25 ± 0.25	1.19 ± 0.2
ACBD3 (UniProt Q9H3P7)	1.02 ± 0.024	1.02 ± 0.027	0.972 ± 0.059	0.944 ± 0.027	0.945 ± 0.029	0.915 ± 0.053	0.912 ± 0.096	0.861 ± 0.089
CHMP1A (UniProt Q9HD42)	0.875 ± 0.065	0.774 ± 0.071	1.03 ± 0.08	0.993 ± 0.037	0.999 ± 0.033	0.961 ± 0.06	0.942 ± 0.13	1.01 ± 0.03
PAIP1 (UniProt Q9H074)	1.02 ± 0.033	0.934 ± 0.064	1.01 ± 0.024	0.963 ± 0.019	0.966 ± 0.023	0.928 ± 0.028	0.928 ± 0.11	0.941 ± 0.034
TBC1D22B (UniProt Q9NU19)	0.994 ± 0.021	0.983 ± 0.068	1.07 ± 0.047	1.01 ± 0.016	0.88471 ± 6.7e-05	0.971 ± 0.1	0.998 ± 0.039	0.951 ± 0.031
RAB33B (UniProt Q9H082)	1.1 ± 0.096	1.04 ± 0.074	0.927 ± 0.07	0.986 ± 0.14	0.98 ± 0.093	0.945 ± 0.12	0.904 ± 0.064	0.926 ± 0.072
GHITM (UniProt Q9H3K2)	1.03 ± 0.047	0.96 ± 0.057	0.915 ± 0.075	0.914 ± 0.084	0.929 ± 0.06	0.909 ± 0.033	0.876 ± 0.071	0.865 ± 0.093
GAN (UniProt Q9H2C0)	1.14 ± 0.063	1.06 ± 0.02	1.01 ± 0.064	1.03 ± 0.056	1.07 ± 0.033	1.04 ± 0.043	1.01 ± 0.052	0.96 ± 0.068
ILKAP (UniProt Q9H0C8)	0.959 ± 0.034	0.95 ± 0.023	0.905 ± 0.049	0.904 ± 0.058	0.88 ± 0.058	0.897 ± 0.048	0.87 ± 0.049	0.869 ± 0.065
ACTR8 (UniProt Q9H981)	1.12 ± 0.14	1.13 ± 0.036	1.12 ± 0.074	1.13 ± 0.14	1.17 ± 0.13	1.15 ± 0.12	1.22 ± 0.2	1.18 ± 0.14
ALG2 (UniProt Q9H553)	1.01 ± 0.15	1.04 ± 0.015	0.853 ± 0.024	0.983 ± 0.026	0.887 ± 0.033	0.934 ± 0.041	0.894 ± 0.04	0.928 ± 0.039
CHD8 (UniProt Q9HCK8)	0.995 ± 0.041	1.03 ± 0.019	1.02 ± 0.022	1.03 ± 0.025	1 ± 0.025	1.02 ± 0.011	1.045 ± 0.01	1.027 ± 0.0028
MYH16 (UniProt Q9H6N6)	0.98 ± 0.019	0.959 ± 0.032	1.02 ± 0.013	0.963 ± 0.049	0.987 ± 0.074	0.994 ± 0.074	1.08 ± 0.18	0.99 ± 0.14
RTN4 (UniProt Q9NQC3)	0.931 ± 0.032	0.916 ± 0.056	0.949 ± 0.069	0.942 ± 0.076	0.951 ± 0.072	0.946 ± 0.071	0.909 ± 0.09	0.948 ± 0.062
PARP12 (UniProt Q9H0J9)	1.05 ± 0.085	1.11 ± 0.1	0.947 ± 0.038	1.02 ± 0.067	0.97 ± 0.045	0.934 ± 0.036	0.928 ± 0.027	0.881 ± 0.055
UniProt Q9HA47 and related entries	1.01 ± 0.02	0.946 ± 0.037	1.05 ± 0.1	0.966 ± 0.056	0.98 ± 0.1	0.987 ± 0.034	0.983 ± 0.12	0.958 ± 0.024
UniProt Q9GZY8-2|Q9GZY8-5	0.94 ± 0.088	0.927 ± 0.12	0.955 ± 0.099	0.902 ± 0.16	0.907 ± 0.11	0.892 ± 0.13	0.918 ± 0.1	0.899 ± 0.089
UBQLN4 (UniProt Q9NRR5)	0.926 ± 0.049	1 ± 0.067	1.02 ± 0.08	0.958 ± 0.041	0.999 ± 0.032	0.933 ± 0.059	0.9666 ± 0.0095	0.997 ± 0.018
ULBP2 (UniProt Q9BZM5)	0.893 ± 0.085	0.86 ± 0.1	0.918 ± 0.073	0.884 ± 0.1	0.907 ± 0.098	0.89 ± 0.043	0.916 ± 0.1	0.925 ± 0.088
OSGEPL1 (UniProt Q9H4B0)	1.08 ± 0.1	0.942 ± 0.1	1.11 ± 0.11	1 ± 0.099	0.94 ± 0.062	0.994 ± 0.13	0.956 ± 0.042	0.924 ± 0.087
UniProt Q9H7H0 and related entries	1.06 ± 0.028	1.11 ± 0.083	1.03 ± 0.071	1.098 ± 0.0012	1.15 ± 0.11	1.17 ± 0.1	1.11 ± 0.099	1.12 ± 0.037
UniProt Q9H9Y6 and related entries	1.07 ± 0.13	1.11 ± 0.11	1.05 ± 0.14	1.19 ± 0.2	1.26 ± 0.19	1.26 ± 0.23	1.24 ± 0.15	1.23 ± 0.17
UniProt Q9H147 and related entries	1.08 ± 0.14	1.03 ± 0.091	1.16 ± 0.13	1.14 ± 0.082	1.14 ± 0.12	1.12 ± 0.073	1.17 ± 0.14	1.15 ± 0.095
LANCL2 (UniProt Q9NS86)	1.03 ± 0.057	1.04 ± 0.047	0.952 ± 0.02	0.957 ± 0.032	0.898 ± 0.042	0.92 ± 0.019	0.881 ± 0.034	0.886 ± 0.046
UniProt Q9H832 and related entries	1.04 ± 0.06	0.987 ± 0.061	0.9687 ± 0.0042	1.12 ± 0.056	0.927 ± 0.013	0.934 ± 0.043	0.91 ± 0.034	0.963 ± 0.064
TNKS1BP1 (UniProt Q9C0C2)	1.05 ± 0.031	1.02 ± 0.021	1.12 ± 0.058	1.15 ± 0.072	1.18 ± 0.15	1.19 ± 0.094	1.23 ± 0.16	1.27 ± 0.14
UniProt Q9H0P0 and related entries	0.955 ± 0.017	0.945 ± 0.013	0.925 ± 0.037	0.907 ± 0.067	0.892 ± 0.05	0.862 ± 0.043	0.864 ± 0.03	0.854 ± 0.048
IARS2 (UniProt Q9NSE4)	1 ± 0.029	1.02 ± 0.046	0.925 ± 0.014	0.916 ± 0.04	0.894 ± 0.05	0.901 ± 0.03	0.868 ± 0.027	0.847 ± 0.053
CARS2 (UniProt Q9HA77)	1.02 ± 0.052	1 ± 0.034	0.937 ± 0.02	0.9362 ± 0.0034	0.928 ± 0.034	0.908 ± 0.023	0.916 ± 0.078	0.877 ± 0.027

Part of the list above, with each value named.
OSGEPL1 (UniProt Q9H4B0)
  NP40-soluble protein abundance (concentration: 0.1mM): 1.08 ± 0.1
  NP40-soluble protein abundance (concentration: 0.5mM): 0.942 ± 0.1
  NP40-soluble protein abundance (concentration: 1mM): 1.11 ± 0.11
  NP40-soluble protein abundance (concentration: 2mM): 1 ± 0.099
  NP40-soluble protein abundance (concentration: 4mM): 0.94 ± 0.062
  NP40-soluble protein abundance (concentration: 6mM): 0.994 ± 0.13
  NP40-soluble protein abundance (concentration: 8mM): 0.956 ± 0.042
  NP40-soluble protein abundance (concentration: 10mM): 0.924 ± 0.087
UniProt Q9H7H0 and related entries
  NP40-soluble protein abundance (concentration: 0.1mM): 1.06 ± 0.028
  NP40-soluble protein abundance (concentration: 0.5mM): 1.11 ± 0.083
  NP40-soluble protein abundance (concentration: 1mM): 1.03 ± 0.071
  NP40-soluble protein abundance (concentration: 2mM): 1.098 ± 0.0012
  NP40-soluble protein abundance (concentration: 4mM): 1.15 ± 0.11
  NP40-soluble protein abundance (concentration: 6mM): 1.17 ± 0.1
  NP40-soluble protein abundance (concentration: 8mM): 1.11 ± 0.099
  NP40-soluble protein abundance (concentration: 10mM): 1.12 ± 0.037
